Values from PubChem BioAssay AID1159578 (Peter MacCallum Cancer Centre, 2015)
This is a random part of about 18,000 reagents. Over the whole deposit, about 1,030 (5.7%) were called active. 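Inactive calls also include pools with fewer than 3300 nuclei, whose migration was not assessed.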 The raw values are shown without normalisation. Not all columns of the deposit are shown.

Purpose: 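siRNA pools altering how lymphatic endothelial cells close a scratch wound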 (primary screen)
Cell system: human lymphatic endothelial cells
Reagent: siRNA pool against human genes, 40 nM
Timing: 48 h after transfection
Measured: 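High-content imaging of dye-stained cells in a scratch assay measures filled wound area and nuclei per well; duplicate means given as ratio to mock and robust z-score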
Direction: migration robust z-score: higher = faster migration into the scratch; nuclei per well: higher = more cells in the well
Hit rule: 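Pools averaging fewer than 3300 nuclei are never called; remaining pools count as changed when migration robust z lies outside -2 to 2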
Meaning of the calls: active = migration changed; inactive = no migration change, or too few cells

| gene | migration robust z-score | nuclei per well, duplicate mean | Outcome |
| --- | --- | --- | --- |
| ALKBH4 | 0.68 | 7198 | inactive |
| DUS4L | -0.94 | 5569 | inactive |
| OGN | 0.15 | 5415 | inactive |
| GLOD5 | 0.44 | 6398 | inactive |
| OPLAH | -1.06 | 3711 | inactive |
| GPR156 | -1.29 | 4823 | inactive |
| LYRM2 | -0.92 | 4902 | inactive |
| DMAC1 | 0.64 | 5702 | inactive |
| YJU2 | -0.54 | 6402 | inactive |
| NR4A3 | 1.38 | 5324 | inactive |
| WBP2NL | -0.03 | 6490 | inactive |
| H4C7 | 0.68 | 5420 | inactive |
| ZSCAN21 | -2.94 | 2988 | inactive |
| CAST | -0.5 | 5902 | inactive |
| FAHD2B | -1.68 | 4620 | inactive |
| DEFB114 | 0.05 | 4062 | inactive |
| DEFB129 | -2.14 | 4012 | active |
| CD200 | -0.12 | 6408 | inactive |
| GNG8 | -2.4 | 2555 | inactive |
| ARMC8 | 0.6 | 5447 | inactive |
| UBR2 | -0.6 | 5680 | inactive |
| USP44 | -0.11 | 5400 | inactive |
| FAM156A | -1.55 | 4279 | inactive |

Entries listed so far whose gene name starts with F or f:
| gene | migration robust z-score | nuclei per well, duplicate mean | Outcome |
| --- | --- | --- | --- |
| FAHD2B | -1.68 | 4620 | inactive |
| FAM156A | -1.55 | 4279 | inactive |
